Laboratory results from patent US5079257A, “Indoloquinone compounds” (priority 1986, dated 1992).
The name of at least one read-out is uncertain.

System: L1210
Experiment: In vivo L1210 experiments (TNO Rijswijk)
Set-up: species or system mice
Procedure: The in vivo L1210 experiments were carried out in male Balb/c X DBA.2 Fl hybrid mice at TNO, Rijswijk.
In these experiments also, the drugs were administered IP as suspensions in carboxymethyl cellulose […] as a single dose at the first day.

COC1=CC(=O)c2c(c(COC(C)=O)c(/C=C/COC(C)=O)n2C)C1=O [E.O. 1, 3-Acetoxymethyl-5-methoxy-1-methyl-2-[1H-indole-4,7-dione]prop-β-en-α-yl acetate]
% T/C (10, 15, 25 mg/kg IP single dose): 100%

CC(=O)OC/C=C/c1c(COC(C)=O)c2c(n1C)C(=O)C=C(N1CC1)C2=O [E.O. 4, 3-Acetoxymethyl-5-aziridino-1-methyl-2-[1H-indole-4,7-dione]prop-β-en-α-yl acetate]
% T/C (4, 8, 12 mg/kg IP single dose): 100%

COC1=CC(=O)c2c(c(CO)c(/C=C/CO)n2C)C1=O [E.O. 7, 3-Hydroxymethyl-5-methoxy-1-methyl-2-[1H-indole-4,7-dione]prop-β-en-α-ol]
% T/C (100, 125, 160, 200 mg/kg IP single dose): 89%

CCCCn1c(/C=C/CO)c(CO)c2c1C(=O)C=C(N1CC1)C2=O [E.O. 17, 5-Aziridino-3-hydroxymethyl-1-butyl-2-[1H-indole-4,7-dione]prop-β-en-αol]
% T/C (50, 60 mg/kg IP single dose): 100%
